Reference: paper doi:10.1101/2023.01.11.521585
Results are given in words; binding and its absence hold for the method and conditions named. Binding seen in cells or lysates may run through a third protein. A result given as binding can be weak or reduced; the word gives no strength. Where a sequence is shown, tags or fusion partners need not be part of it.

Target: T1, HA∷G6^7TM (mouse) (UniProt Q6F3F9)
T1 sequence: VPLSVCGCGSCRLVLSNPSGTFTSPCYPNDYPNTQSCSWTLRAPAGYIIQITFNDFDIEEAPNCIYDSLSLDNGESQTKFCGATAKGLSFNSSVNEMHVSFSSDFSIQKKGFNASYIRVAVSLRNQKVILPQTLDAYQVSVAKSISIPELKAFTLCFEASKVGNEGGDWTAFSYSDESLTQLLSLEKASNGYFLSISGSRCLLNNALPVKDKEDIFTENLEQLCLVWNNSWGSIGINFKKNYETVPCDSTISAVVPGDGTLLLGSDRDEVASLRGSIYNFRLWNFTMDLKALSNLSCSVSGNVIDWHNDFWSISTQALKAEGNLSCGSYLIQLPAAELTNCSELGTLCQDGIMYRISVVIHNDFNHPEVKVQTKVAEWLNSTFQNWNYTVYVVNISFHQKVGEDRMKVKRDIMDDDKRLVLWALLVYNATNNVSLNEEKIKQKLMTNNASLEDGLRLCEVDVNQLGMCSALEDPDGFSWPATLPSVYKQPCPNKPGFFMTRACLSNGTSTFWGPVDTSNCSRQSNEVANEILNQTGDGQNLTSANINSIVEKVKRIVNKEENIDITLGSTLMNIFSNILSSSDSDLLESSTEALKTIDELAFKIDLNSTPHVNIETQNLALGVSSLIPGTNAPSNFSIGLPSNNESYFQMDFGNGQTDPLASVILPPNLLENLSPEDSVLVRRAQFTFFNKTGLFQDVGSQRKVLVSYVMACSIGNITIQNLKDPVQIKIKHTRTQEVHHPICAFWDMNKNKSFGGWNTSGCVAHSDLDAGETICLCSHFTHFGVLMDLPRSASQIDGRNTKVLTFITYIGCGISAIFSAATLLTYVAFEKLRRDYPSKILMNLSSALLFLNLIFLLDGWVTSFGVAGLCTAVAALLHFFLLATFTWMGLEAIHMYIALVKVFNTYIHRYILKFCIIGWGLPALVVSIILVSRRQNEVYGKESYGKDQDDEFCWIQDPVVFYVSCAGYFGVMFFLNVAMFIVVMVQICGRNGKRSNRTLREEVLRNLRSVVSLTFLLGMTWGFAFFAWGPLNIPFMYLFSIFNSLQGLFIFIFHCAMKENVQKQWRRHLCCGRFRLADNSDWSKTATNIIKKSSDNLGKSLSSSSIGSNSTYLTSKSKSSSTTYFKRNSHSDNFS
Test: co-IP

Substance: G6^1TM∷V5 (mouse)
- binding: binds
